Source: publication PMC7156037
These are yes or no findings as the source states them, for the method shown. In cells and extracts the contact can be indirect. A result given as binding can be weak or reduced; the word gives no strength. Sequences can lack the tags named with a protein.

The chains behind the UniProt entries cited, without tags or fusion partners. Where a name states a change or a piece, a line headed by the entry shows the natural chain unless it says otherwise.
UniProt Q9LEV0: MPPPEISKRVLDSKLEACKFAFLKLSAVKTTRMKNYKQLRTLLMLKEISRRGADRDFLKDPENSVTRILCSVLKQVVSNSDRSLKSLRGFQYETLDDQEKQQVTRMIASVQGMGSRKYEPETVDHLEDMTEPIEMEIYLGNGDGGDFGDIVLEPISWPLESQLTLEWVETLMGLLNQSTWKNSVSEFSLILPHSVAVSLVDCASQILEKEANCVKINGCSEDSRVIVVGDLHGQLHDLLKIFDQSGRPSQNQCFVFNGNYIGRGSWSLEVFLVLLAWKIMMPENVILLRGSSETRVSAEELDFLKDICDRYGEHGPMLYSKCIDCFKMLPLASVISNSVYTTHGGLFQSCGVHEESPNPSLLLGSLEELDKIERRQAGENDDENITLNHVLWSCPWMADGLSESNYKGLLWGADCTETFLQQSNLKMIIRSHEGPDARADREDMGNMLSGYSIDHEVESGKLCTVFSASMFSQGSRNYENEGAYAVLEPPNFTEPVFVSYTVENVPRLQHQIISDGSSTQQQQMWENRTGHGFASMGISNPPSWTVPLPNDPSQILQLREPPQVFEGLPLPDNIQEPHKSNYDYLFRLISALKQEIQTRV

Target: PP7-like (PP7L), FLAG-tagged (A. thaliana) (UniProt Q9LEV0)
Assay: co-IP; FLAG-tagged bait captured on M2 magnetic FLAG-beads from extract of 3-week-old seedlings co-expressing both tagged proteins; IP buffer 50mM Tris pH 7.6, 150mM NaCl, 5mM MgCl2, 0.1% Nonidet P-40, 10% glycerol, 0.5 mM DTT; 2 hour at 4°C; three washes; Western blot with anti-FLAG and anti-MYC; plants expressing only one tagged protein as negative controls

Row | binding | Binder
1 | binds | MAIN-LIKE 1 (MAIL1), MYC-tagged (protein, UniProt Q9SK32 1-509) MDIDVGPVDPSVLYEQDLHVSSAVWEGQERGLLRCQEHTSLLHQWKLTDEQINLVDKAGFGYFRKIGPMSLNNSLISALVERWRRETNTFHLPLGEMTITLDEVALVLGLEIDGDPIVGSKVGDEVAMDMCGRLLGKLPSAANKEVNCSRVKLNWLKRTFSECPEDASFDVVKCHTRAYLLYLIGSTIFATTDGDKVSVKYLPLFEDFDQAGRYAWGAAALACLYRALGNASLKSQSNICGCLTLLQCWSYFHLDIGRPEKSEACFPLALLWKGKGSRSKTDLSEYRRELDDLDPSKITWCPYERFENLIPPHIKAKLILGRSKTTLVCFEKIELHFPDRCLRQFGKRQPIPLKVKRRDRKNRRLDDLDTSMSLACEEWAERGDHIVDSPGGGNVVDDGAYMEWYARISITKLYREAFLESQVMNMIACMREFEEAASGIALERLSPAEREVMESVKDTFANSLTFGGWQEVAVNSGYGKRRRRNEHTPTPNNGGGNDISSLLLQKEDS
2 | binds | … OF … (MAIN), MYC-tagged (protein, UniProt Q9LMT7 1-478) MPVLYEQDKHVSSAILTGQERGVLRCQERTSLLHHWKLTKEQIALVEKAGFGWFRLVGSISLNNSLISALVERWRRETNTFHFPCGEMTITLDEVSLILGLAVDGKPVVGVKEKDEDPSQVCLRLLGKLPKGELSGNRVTAKWLKESFAECPKGATMKEIEYHTRAYLIYIVGSTIFATTDPSKISVDYLILFEDFEKAGEYAWGAAALAFLYRQIGNASQRSQSIIGGCLTLLQCWSYFHLNIDRPKRTTRQFPLALLWKGRQQSRSKNDLFKYRKALDDLDPSNVSWCPFEGDLDIVPQSFKDNLLLGRSRTKLIGPKVVEWHFPDRCMKQFGLCQVIPGEVPPRKNEKNHDEDLLEDMNTADEEWMRRRENIVENGGGNGDESEYMQWFNSITVPKLHRDTSLEADIMNVQAAILQFDEVASTLSLEDLHPEEREAIEEAVMSMSNALRVGDWYEASTTNKRKRREEQQQTDWSE
